Assay results reported in the supplement of paper PMC10849652.
The other results are listed elsewhere or left out.

By UniProt entry, the sequences of proteins in these tests, tags left out. Where a name states a change or a piece, a line headed by the entry shows the natural chain unless it says otherwise.
UniProt Q9NQV6: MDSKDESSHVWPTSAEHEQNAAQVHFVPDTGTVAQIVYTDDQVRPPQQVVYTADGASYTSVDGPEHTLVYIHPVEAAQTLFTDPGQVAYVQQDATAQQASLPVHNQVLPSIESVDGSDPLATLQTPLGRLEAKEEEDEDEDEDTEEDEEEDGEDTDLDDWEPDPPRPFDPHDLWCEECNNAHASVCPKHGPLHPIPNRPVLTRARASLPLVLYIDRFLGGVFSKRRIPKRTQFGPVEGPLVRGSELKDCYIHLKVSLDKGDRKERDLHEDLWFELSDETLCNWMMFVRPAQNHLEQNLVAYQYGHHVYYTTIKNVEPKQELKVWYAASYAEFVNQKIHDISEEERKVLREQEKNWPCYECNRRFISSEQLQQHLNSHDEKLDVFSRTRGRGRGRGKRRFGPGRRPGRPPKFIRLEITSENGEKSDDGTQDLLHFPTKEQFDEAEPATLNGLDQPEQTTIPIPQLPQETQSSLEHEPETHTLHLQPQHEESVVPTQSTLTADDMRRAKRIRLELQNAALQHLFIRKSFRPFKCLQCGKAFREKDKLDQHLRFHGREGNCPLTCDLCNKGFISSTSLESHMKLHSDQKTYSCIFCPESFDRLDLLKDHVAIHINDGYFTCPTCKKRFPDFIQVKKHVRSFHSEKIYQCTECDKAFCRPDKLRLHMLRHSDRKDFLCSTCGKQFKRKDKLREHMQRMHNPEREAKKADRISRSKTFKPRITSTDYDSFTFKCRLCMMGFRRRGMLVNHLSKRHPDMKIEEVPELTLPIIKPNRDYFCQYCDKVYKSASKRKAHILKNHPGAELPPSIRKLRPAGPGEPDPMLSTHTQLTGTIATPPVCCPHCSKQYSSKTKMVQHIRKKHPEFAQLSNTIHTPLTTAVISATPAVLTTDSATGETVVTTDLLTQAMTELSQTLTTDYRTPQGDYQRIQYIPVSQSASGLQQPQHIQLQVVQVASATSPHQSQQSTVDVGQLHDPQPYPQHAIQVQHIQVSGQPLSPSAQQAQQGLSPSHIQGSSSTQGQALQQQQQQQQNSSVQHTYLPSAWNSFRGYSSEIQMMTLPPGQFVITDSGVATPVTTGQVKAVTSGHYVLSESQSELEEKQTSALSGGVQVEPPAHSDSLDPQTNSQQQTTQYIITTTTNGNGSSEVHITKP
UniProt Q5JR12: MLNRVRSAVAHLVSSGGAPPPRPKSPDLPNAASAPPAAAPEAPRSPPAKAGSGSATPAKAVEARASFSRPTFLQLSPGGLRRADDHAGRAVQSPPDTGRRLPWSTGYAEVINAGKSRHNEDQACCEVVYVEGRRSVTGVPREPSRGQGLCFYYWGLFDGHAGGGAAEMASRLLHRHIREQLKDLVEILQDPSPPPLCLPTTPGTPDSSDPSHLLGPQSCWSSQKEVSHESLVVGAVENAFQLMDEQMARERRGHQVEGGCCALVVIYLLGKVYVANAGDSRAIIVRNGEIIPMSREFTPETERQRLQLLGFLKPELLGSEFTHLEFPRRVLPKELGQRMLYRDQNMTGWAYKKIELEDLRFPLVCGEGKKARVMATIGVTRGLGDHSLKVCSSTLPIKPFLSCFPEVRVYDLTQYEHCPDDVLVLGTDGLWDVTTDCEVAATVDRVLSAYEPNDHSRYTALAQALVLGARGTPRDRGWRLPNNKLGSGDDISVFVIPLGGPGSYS
UniProt Q15435: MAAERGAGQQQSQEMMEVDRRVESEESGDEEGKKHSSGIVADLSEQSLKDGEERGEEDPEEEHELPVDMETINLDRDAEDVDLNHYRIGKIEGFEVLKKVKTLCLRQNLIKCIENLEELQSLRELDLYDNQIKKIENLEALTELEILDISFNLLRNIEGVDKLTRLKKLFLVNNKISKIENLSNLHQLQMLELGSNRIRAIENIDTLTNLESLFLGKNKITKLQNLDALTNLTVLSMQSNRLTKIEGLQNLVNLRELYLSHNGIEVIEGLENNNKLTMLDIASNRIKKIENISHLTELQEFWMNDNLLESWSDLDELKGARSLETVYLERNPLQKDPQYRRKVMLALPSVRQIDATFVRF
UniProt Q96I34: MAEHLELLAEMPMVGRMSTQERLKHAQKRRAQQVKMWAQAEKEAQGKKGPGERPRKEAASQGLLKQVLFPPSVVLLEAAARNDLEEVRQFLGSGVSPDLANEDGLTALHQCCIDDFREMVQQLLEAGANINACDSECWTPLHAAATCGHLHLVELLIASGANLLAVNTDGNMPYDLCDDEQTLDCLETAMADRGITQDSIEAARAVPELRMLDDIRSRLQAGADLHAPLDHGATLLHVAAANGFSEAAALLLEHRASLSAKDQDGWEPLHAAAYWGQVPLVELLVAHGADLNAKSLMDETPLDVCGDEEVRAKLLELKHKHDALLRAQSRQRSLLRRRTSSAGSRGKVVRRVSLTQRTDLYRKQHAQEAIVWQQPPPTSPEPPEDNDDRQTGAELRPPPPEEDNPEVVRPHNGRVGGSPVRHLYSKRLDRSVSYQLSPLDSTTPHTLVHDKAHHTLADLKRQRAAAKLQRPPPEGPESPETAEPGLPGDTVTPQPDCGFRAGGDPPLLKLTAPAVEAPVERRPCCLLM
UniProt Q969Q6: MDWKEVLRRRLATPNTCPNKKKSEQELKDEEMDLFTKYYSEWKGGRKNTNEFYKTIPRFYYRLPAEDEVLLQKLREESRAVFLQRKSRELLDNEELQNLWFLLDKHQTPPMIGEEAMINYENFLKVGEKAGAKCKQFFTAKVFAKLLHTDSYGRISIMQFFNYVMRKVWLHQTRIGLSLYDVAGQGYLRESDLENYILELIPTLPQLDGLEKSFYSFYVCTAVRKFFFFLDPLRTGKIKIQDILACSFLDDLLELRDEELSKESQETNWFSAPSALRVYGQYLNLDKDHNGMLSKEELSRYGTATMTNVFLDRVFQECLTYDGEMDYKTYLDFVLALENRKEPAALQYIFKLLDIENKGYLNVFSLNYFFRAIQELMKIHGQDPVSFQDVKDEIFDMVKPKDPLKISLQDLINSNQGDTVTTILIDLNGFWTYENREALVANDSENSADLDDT
UniProt P55345: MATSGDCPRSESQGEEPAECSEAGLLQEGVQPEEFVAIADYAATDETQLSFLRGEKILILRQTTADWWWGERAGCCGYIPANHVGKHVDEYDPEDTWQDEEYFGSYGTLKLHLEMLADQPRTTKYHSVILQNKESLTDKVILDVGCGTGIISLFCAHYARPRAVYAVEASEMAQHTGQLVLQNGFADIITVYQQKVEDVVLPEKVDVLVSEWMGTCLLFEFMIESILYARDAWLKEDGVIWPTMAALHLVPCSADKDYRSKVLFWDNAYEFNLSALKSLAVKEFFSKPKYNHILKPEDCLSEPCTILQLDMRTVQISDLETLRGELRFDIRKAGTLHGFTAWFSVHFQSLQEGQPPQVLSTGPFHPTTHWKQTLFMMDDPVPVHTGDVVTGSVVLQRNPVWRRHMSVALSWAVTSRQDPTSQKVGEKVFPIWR
UniProt O43900: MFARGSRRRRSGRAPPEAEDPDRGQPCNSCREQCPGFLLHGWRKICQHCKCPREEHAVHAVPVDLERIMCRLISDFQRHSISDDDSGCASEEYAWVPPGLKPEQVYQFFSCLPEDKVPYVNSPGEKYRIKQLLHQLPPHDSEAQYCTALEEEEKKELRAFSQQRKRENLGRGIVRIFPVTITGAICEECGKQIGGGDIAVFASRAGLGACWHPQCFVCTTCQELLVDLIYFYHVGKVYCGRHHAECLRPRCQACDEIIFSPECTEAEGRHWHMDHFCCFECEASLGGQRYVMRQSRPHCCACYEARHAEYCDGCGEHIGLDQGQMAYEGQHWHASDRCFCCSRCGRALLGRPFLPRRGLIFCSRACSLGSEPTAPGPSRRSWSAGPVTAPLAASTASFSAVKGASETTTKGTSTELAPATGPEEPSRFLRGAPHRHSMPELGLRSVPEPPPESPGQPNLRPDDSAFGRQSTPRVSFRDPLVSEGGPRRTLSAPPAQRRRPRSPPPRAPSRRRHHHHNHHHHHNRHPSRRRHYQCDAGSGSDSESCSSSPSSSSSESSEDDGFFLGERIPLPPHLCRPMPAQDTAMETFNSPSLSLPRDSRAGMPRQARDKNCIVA
UniProt Q13362, whole entry, looked up: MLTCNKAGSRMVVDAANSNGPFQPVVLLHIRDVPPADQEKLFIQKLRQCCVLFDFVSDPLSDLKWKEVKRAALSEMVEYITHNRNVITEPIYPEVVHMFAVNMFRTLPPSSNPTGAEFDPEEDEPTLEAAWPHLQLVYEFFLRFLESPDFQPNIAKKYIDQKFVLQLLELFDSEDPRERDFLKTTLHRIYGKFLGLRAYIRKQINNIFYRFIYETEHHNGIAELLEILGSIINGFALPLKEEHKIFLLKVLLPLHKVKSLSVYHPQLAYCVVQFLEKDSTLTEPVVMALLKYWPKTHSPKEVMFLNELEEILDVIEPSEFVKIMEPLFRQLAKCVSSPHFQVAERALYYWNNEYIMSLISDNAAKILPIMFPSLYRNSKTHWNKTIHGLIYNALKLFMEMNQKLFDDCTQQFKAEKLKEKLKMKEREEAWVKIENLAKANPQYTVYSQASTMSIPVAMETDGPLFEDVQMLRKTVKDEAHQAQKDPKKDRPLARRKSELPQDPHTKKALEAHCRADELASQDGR
UniProt Q9Y255: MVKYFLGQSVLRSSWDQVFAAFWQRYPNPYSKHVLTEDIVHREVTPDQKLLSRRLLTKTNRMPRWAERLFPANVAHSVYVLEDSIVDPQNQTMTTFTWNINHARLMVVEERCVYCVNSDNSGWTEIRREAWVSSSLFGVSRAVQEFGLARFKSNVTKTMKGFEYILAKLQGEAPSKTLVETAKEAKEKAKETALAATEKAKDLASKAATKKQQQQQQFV
UniProt O60437: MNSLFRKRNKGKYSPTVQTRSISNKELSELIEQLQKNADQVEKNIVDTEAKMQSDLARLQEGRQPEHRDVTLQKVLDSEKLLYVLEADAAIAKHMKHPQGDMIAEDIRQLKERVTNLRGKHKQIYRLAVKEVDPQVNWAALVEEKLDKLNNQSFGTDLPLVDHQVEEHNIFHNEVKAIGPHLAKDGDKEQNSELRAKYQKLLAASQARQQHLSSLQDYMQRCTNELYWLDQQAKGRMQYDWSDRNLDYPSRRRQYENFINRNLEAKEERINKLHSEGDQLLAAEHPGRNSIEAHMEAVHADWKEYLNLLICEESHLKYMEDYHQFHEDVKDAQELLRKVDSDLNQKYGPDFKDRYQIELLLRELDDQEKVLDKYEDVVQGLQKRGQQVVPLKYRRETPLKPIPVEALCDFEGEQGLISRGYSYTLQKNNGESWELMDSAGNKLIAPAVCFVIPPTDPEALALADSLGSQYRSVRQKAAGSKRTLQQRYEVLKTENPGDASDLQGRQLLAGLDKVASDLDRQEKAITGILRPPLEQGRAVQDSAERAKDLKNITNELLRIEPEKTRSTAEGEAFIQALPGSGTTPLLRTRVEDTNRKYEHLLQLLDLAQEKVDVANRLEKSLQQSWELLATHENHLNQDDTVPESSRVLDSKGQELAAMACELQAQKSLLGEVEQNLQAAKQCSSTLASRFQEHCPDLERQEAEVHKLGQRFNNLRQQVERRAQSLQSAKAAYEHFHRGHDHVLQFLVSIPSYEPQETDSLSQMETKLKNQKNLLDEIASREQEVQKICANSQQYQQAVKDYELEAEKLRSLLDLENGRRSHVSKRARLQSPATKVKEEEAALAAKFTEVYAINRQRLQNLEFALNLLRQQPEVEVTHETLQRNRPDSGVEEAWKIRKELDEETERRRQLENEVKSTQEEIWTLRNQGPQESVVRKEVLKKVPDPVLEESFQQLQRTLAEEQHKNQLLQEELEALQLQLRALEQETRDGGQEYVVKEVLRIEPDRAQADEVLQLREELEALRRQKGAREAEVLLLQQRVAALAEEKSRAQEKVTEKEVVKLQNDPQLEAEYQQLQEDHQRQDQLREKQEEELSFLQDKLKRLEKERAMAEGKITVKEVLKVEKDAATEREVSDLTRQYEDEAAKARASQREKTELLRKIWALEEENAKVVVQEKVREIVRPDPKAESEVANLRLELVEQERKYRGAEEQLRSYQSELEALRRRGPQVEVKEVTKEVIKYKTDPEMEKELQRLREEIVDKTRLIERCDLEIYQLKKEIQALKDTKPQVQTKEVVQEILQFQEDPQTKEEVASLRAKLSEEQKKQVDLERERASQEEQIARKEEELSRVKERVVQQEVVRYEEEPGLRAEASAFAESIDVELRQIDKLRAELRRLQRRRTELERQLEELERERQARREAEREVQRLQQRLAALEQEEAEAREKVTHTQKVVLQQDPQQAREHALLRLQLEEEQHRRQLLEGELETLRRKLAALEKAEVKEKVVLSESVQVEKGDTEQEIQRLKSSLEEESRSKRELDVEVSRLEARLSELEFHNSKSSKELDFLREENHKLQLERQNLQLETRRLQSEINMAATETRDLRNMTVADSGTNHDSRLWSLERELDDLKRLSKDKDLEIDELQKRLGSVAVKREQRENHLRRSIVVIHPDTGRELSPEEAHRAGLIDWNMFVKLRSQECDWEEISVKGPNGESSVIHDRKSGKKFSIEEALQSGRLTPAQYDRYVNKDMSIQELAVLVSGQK

Compound: CS(=O)(=O)CCNCc1ccc(-c2ccc3ncnc(Nc4ccc(OCc5cccc(F)c5)c(Cl)c4)c3c2)o1 [lapatinib]
Assay: log2 fold change, soluble protein after heating vs DMSO (PISA); higher = thermal stabilisation; K562 lysate, 10 uM; active = over 0.2 and 3.5 SD of the protein, either way, in both replicates (recomputed)
How it was run: (§1)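 Values give the log-two fold change in thermal stability against solvent controls, from duplicates. Crude K562 extract at 1 mg/mL protein, made by dounce homogenisation in PBS pH 7.4 with 1 mM MgCl2, was treated with 10 μM compound for 30 min. After 3 min heating across 48°C-58°C, aliquots were pooled, adjusted to 0.5% NP-40 at 4°C and centrifuged at 21,000xg for 90 min. The supernatant was measured by TMTpro 16plex LC-MS/MS with channel sums equalised.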

| Target | log2 fold change |
| --- | --- |
| PPP1R14A, A0A0B4J2A3 | inactive: -0.02 |
| PPME1 (UniProt Q9Y570) | inactive: 0.002 |
| PRDM10 isoform 6 (UniProt Q9NQV6) | inactive: -0.067 |
| PPM1B isoform 2 (UniProt O75688) | inactive: -0.029 |
| PPM1J (UniProt Q5JR12) | inactive: 0.023 |
| PPP1R7 isoform 2 (UniProt Q15435) | inactive: 0.001 |
| PRG2 (UniProt P13727) | inactive: 0.188 |
| PPP1R16A (UniProt Q96I34) | inactive: -0.023 |
| PPP2R3C (UniProt Q969Q6) | inactive: 0.048 |
| PRDM2 (UniProt Q13029) | inactive: -0.058 |
| PPP1R7 (UniProt C9JD73) | inactive: -0.106 |
| PPIP5K2 (UniProt H0Y9S9) | inactive: 0.099 |
| PREP (UniProt H0Y5Y0) | inactive: -0.029 |
| PRPF40A isoform 3 (UniProt O75400) | inactive: -0.017 |
| PRMT2 (UniProt P55345) | inactive: -0.534 |
| PROSER1 (UniProt Q86XN7) | inactive: 0.111 |

Compound: CS(=O)(=O)N1CCN(Cc2cc3nc(-c4cccc5[nH]ncc45)nc(N4CCOCC4)c3s2)CC1 [pictilisib]
Assay: as above
How it was run: as §1

| Target | log2 fold change |
| --- | --- |
| PRICKLE3 (UniProt O43900) | inactive: -0.185 |
| PPP2R5C isoform 2 (UniProt Q13362) | inactive: 0.151 |
| PPME1 (UniProt Q9Y570) | inactive: 0.038 |
| PRDM10 isoform 6 (UniProt Q9NQV6) | inactive: -0.005 |
| PRELID1 (UniProt Q9Y255) | inactive: -0.117 |
| PPM1B isoform 2 (UniProt O75688) | inactive: -0.003 |
| PPP1R16A (UniProt Q96I34) | inactive: -0.031 |
| PPP2R3C (UniProt Q969Q6) | inactive: -0.029 |
| PRDM2 (UniProt Q13029) | inactive: 0.192 |
| PPP1R12C isoform 3 (UniProt Q9BZL4) | inactive: -0.017 |
| PRIMPOL (UniProt Q96LW4) | inactive: 0.02 |
| PPIP5K2 (UniProt H0Y9S9) | inactive: -0.153 |
| PPL (UniProt O60437) | inactive: 0.439 |
| PRMT2 (UniProt P55345) | inactive: 0.075 |
| PROSER1 (UniProt Q86XN7) | inactive: -0.077 |
